# Laboratory results taken from the supplement of paper PMC9135407.
# Where “and” joins values, the source holds several entries; their conditions need not be identical. Identical values can stand only once. Counter-ions that a name gives are not always drawn. ± gives the standard deviation of the averaged measurements. The list shows a part of the results. Part of the spread comes from offsets between plates or batches.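 Primary human stellate myofibroblasts activated in culture; inactivation shown by regained lipid droplets. Readout: fraction of Hoechst-counted cells exceeding a per-plate Bodipy threshold, duplicate wells, each plate with DMSO negative and nortriptyline positive controls. Hits: control-normalized score beyond the plate's top-tenth-percentile nortriptyline wells, or among its three best wells. Final well concentrations unstated.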
# System: primary human hepatic stellate cells (donor 1)
# Experiment: percent Bodipy-positive cells; higher = more lipid droplet accumulation
# Conditions: 48 h
# [1] = library stock concentration: 3.33 mM
# [2] = library stock concentration: 10 mM
# [3] = library stock concentration: 1 mM
# [4] = library stock concentration: 5.9 mM
compound,measurement,setting,value
C[C@H]1C[C@H]2[C@@H]3CCC4=CC(=O)C=C[C@]4(C)[C@H]3C(=O)C[C@]2(C)[C@@]1(O)C(=O)CO [Meprednisone],percent Bodipy-positive cells,[1],17.7 ± 1.8%
same,percent Bodipy-positive cells,[2],24.8 ± 19%
CC1(C)O[C@@H]2C[C@H]3[C@@H]4C[C@H](F)C5=CC(=O)CC[C@]5(C)[C@H]4[C@@H](O)C[C@]3(C)[C@]2(C(=O)CO)O1 [Flurandrenolide],percent Bodipy-positive cells,,8.24 ± 2.5%
same,percent Bodipy-positive cells,[2],32.5 ± 5.7%
"CCC(=O)OCC(=O)[C@@]1(OC(=O)CC)[C@@H](C)C[C@H]2[C@@H]3CCC4=CC(=O)C=C[C@]4(C)[C@@]3(F)[C@@H](O)C[C@@]21C [Betamethasone 17,21-dipropionate]",percent Bodipy-positive cells,library stock concentration: 4 mM,12.2 ± 0.36%
N[C@@H](Cc1ccc(O)c([N+](=O)[O-])c1)C(=O)O [Nitrotyrosine],percent Bodipy-positive cells,[3],13.1 ± 3.3%
CN1CCN(C(=O)c2nc3ccc(Cl)cc3[nH]2)CC1,percent Bodipy-positive cells,[2],13 ± 0.89%
CC1(C)C=C(CN2C/C(=C\c3ccc(F)cc3)C(=O)/C(=C/c3ccc(F)cc3)C2)C(C)(C)N1O,percent Bodipy-positive cells,[1],82 ± 7.1%
same,percent Bodipy-positive cells,[2],100%
NC(C(=O)O)c1ccc(C(=O)O)c(C(=O)O)c1 (centres undefined),percent Bodipy-positive cells,[2],8.71 ± 1.5%
NNC(=O)c1ccncc1 [Isoniazid],percent Bodipy-positive cells,,21.9 ± 1.9%
same,percent Bodipy-positive cells,[1],13.3 ± 1.9%
same,percent Bodipy-positive cells,[2],19.6% and 16.8% and 30.9%
CN(C(=O)CCCOc1ccc2[nH]c(=O)ccc2c1)C1CCCCC1 [Cilostamide],percent Bodipy-positive cells,library stock concentration: 5.8 mM,9.56 ± 0.95%
CC(C)N(CCC(=O)c1ccc2ccccc2c1)Cc1ccccc1.Cl,percent Bodipy-positive cells,[2],99.32 ± 0.96%
O=C(O)c1cc2cc(F)ccc2[nH]1 [5-Fluoroindole-2-carboxylic acid],percent Bodipy-positive cells,[2],42.4 ± 4.5%
CCN1CCCC1CNC(=O)c1cc(S(N)(=O)=O)ccc1OC (centres undefined) [(?)-Sulpiride],percent Bodipy-positive cells,[2],27.1 ± 6%
CCN1CCCC1CNC(=O)c1cc(S(N)(=O)=O)ccc1OC (centres undefined) [Sulpiride],percent Bodipy-positive cells,,20 ± 2.6%
same,percent Bodipy-positive cells,[4],22 ± 3.8%
COc1ccc(-c2ccc3cc(C(=O)O)ccc3c2)cc1C12CC3CC(CC(C3)C1)C2 [Adapalene],percent Bodipy-positive cells,[1],11 ± 3.2%
same,percent Bodipy-positive cells,[2],10.4 ± 4%
COc1ccc(-c2ccc3cc(C(=O)O)ccc3c2)cc1C12CC3CC(CC(C3)C1)C2,percent Bodipy-positive cells,[2],49.1 ± 7.6%
CN1CCN(c2ccc3nc(-c4c(N)c5c(F)cccc5[nH]c4=O)[nH]c3c2)CC1 [Dovitinib (TKI-258) Dilactic Acid],percent Bodipy-positive cells,[2],88.7 ± 15%
CN1CCN(c2ccc3nc(-c4c(N)c5c(F)cccc5[nH]c4=O)[nH]c3c2)CC1,percent Bodipy-positive cells,library stock concentration: 80 uM,73.1 ± 0.96%
O=c1[nH]c(=O)n([C@H]2C[C@H](O)[C@@H](CO)O2)cc1I [Idoxuridine],percent Bodipy-positive cells,,28.3 ± 1.5%
same,percent Bodipy-positive cells,[1],17.3 ± 6.9%
same,percent Bodipy-positive cells,[2],13.02 ± 0.084%
O=c1[nH]c(=O)n([C@H]2C[C@H](O)[C@@H](CO)O2)cc1I,percent Bodipy-positive cells,[2],27.6 ± 1.7%
CCCCC/C=C\C/C=C\CCCCCCCC(=O)O [Linoleic acid],percent Bodipy-positive cells,[3],9.67 ± 4.5%
CCCCC/C=C\C/C=C\CCCCCCCC(=O)O [Linoleic Acid (peroxide free)],percent Bodipy-positive cells,[3],6.03 ± 1%
Cc1cccc(N(C)C(=S)Oc2ccc3ccccc3c2)c1 [Tolnaftate],percent Bodipy-positive cells,,33.6 ± 2.6%
same,percent Bodipy-positive cells,[1],11.9 ± 0.27%
same,percent Bodipy-positive cells,[2],18.4% and 22.6%
C=CCNC1=C2C[C@@H](C)C[C@H](OC)[C@H](O)[C@@H](C)/C=C(\C)[C@H](OC(N)=O)[C@@H](OC)/C=C\C=C(/C)C(=O)NC(=CC1=O)C2=O [17-AAG (Tanespimycin)],percent Bodipy-positive cells,[1],73.2 ± 7.5%
N[C@@H](COP(=O)(O)O)C(=O)O [O-Phospho-L-serine],percent Bodipy-positive cells,[2],20.9 ± 2.5%
N[C@@H](COP(=O)(O)O)C(=O)O,percent Bodipy-positive cells,[2],27.7 ± 8.1%
CCCCc1oc2ccccc2c1C(=O)c1cc(I)c(OCCN(CC)CC)c(I)c1,percent Bodipy-positive cells,library stock concentration: 7.3 mM,61.9 ± 33%
same,percent Bodipy-positive cells,library stock concentration: 9.5 mM,88.2 ± 1.2%
CCCCc1oc2ccccc2c1C(=O)c1cc(I)c(OCCN(CC)CC)c(I)c1 [Amiodarone],percent Bodipy-positive cells,library stock concentration: 3.1 mM,34.7 ± 1.9%
CCCCc1oc2ccccc2c1C(=O)c1cc(I)c(OCCN(CC)CC)c(I)c1 [Amiodarone hydrochloride],percent Bodipy-positive cells,,60.7 ± 3%
same,percent Bodipy-positive cells,library stock concentration: 2.9 mM,51.7 ± 6.2%
CCCCc1oc2ccccc2c1C(=O)c1cc(I)c(OCCN(CC)CC)c(I)c1 [Amiodarone HCl],percent Bodipy-positive cells,[1],37.02 ± 0.32%
O=C(Nc1cccnc1)N1CCC(Cc2cccc(Oc3ccc(C(F)(F)F)cn3)c2)CC1,percent Bodipy-positive cells,[1],10.3 ± 0.22%
same,percent Bodipy-positive cells,[2],28.5 ± 1.8%
O=C(Nc1ccc([N+](=O)[O-])cc1Cl)c1cc(Cl)ccc1O [Niclosamide],percent Bodipy-positive cells,,72.62 ± 0.38%
CCCCCCCC/C=C\CCCCCCCC(=O)NCC [Oleoyl Ethyl Amide],percent Bodipy-positive cells,[3],8.69 ± 2.4%
CCOc1ccc(Cc2nccc3cc(OCC)c(OCC)cc23)cc1OCC [Ethaverine hydrochloride],percent Bodipy-positive cells,,9.12 ± 0.57%
same,percent Bodipy-positive cells,[2],23.68 ± 0.057%
Cc1cc(C)nc(NS(=O)(=O)c2ccc(NC(=S)NC(=O)COc3ccc(Br)cc3Cl)cc2)n1,percent Bodipy-positive cells,[1],27.3 ± 2.5%
same,percent Bodipy-positive cells,[2],31.9 ± 6%
"CCCCCC(=O)CC[C@H]1[C@H](O)CC(=O)[C@@H]1C/C=C\CCCC(=O)O [13,14-dihydro-15-keto Prostaglandin E2]",percent Bodipy-positive cells,[3],23.9 ± 12%
CC(C)c1nc(CN(C)C(=O)N[C@@H](CCN2CCOCC2)C(=O)N[C@H](CC[C@H](Cc2ccccc2)NC(=O)OCc2cncs2)Cc2ccccc2)cs1 [Cobicistat (GS-9350)],percent Bodipy-positive cells,[1],25.1 ± 3.5%
same,percent Bodipy-positive cells,[2],28.8 ± 7.3%
Nc1ccc(S(=O)(=O)O)cc1.Nc1ccc(S(=O)(=O)O)cc1.[Zn] [Sulfanilate zinc],percent Bodipy-positive cells,library stock concentration: 4.9 mM,8.07 ± 0.12%
C#C[C@]1(O)CC[C@H]2[C@@H]3CCC4=Cc5oncc5C[C@]4(C)[C@H]3CC[C@@]21C [Danazol],percent Bodipy-positive cells,,62 ± 4.8%
same,percent Bodipy-positive cells,[4],19.7% and 16.8%
same,percent Bodipy-positive cells,[2],13.7 ± 1.2%
C#C[C@]1(O)CC[C@H]2[C@@H]3CCC4=Cc5oncc5C[C@]4(C)[C@H]3CC[C@@]21C,percent Bodipy-positive cells,[2],71.6 ± 4.7%
Cc1cccc(-c2nn3c(c2-c2ccnc4ccc(C(N)=O)cc24)CCC3)n1,percent Bodipy-positive cells,[1],5.12 ± 2.9%
same,percent Bodipy-positive cells,[2],13.6 ± 7.3%
CCNC(=O)CCC/C=C\C[C@@H]1[C@@H](CC[C@@H](O)CCc2ccccc2)[C@H](O)C[C@@H]1O [Latanoprost ethyl amide],percent Bodipy-positive cells,[3],19.5 ± 6%
CCO/C(O)=C1\C(C)=NC(c2ccccc2)=C(C(=O)OCc2ccc([N+](=O)[O-])cc2)C1C#Cc1ccccc1 (centres undefined),percent Bodipy-positive cells,[2],9.01 ± 1.1%
COc1ccc(-c2cc(=O)c3c(OC)c(OC)c(OC)c(OC)c3o2)cc1 [Tangeretin],percent Bodipy-positive cells,[1],16.1 ± 0.67%
same,percent Bodipy-positive cells,[2],26.2 ± 14%
O=C(O)c1ccc(C=C2SC(=S)N(c3cccc(C(F)(F)F)c3)C2=O)cc1,percent Bodipy-positive cells,[1],28.9 ± 5.4%
same,percent Bodipy-positive cells,[2],22% and 9.38%
CN1C(C(=O)Nc2ccccn2)=C(O)c2sc(Cl)cc2S1(=O)=O [Lornoxicam],percent Bodipy-positive cells,[1],13.4 ± 2.9%
same,percent Bodipy-positive cells,[2],13.2 ± 4.6%
CN1C(C(=O)Nc2ccccn2)=C(O)c2sc(Cl)cc2S1(=O)=O,percent Bodipy-positive cells,[2],27.6 ± 4.8%
